Reference: publication PMC7295033
These are yes or no findings as the source states them, for the method shown. In cells and extracts the contact can be indirect. Here binding means that the protein was enriched with, or labelled near, the bait; the list need not be complete.

By UniProt entry, the sequences of proteins in these tests, tags left out.
UniProt Q60857: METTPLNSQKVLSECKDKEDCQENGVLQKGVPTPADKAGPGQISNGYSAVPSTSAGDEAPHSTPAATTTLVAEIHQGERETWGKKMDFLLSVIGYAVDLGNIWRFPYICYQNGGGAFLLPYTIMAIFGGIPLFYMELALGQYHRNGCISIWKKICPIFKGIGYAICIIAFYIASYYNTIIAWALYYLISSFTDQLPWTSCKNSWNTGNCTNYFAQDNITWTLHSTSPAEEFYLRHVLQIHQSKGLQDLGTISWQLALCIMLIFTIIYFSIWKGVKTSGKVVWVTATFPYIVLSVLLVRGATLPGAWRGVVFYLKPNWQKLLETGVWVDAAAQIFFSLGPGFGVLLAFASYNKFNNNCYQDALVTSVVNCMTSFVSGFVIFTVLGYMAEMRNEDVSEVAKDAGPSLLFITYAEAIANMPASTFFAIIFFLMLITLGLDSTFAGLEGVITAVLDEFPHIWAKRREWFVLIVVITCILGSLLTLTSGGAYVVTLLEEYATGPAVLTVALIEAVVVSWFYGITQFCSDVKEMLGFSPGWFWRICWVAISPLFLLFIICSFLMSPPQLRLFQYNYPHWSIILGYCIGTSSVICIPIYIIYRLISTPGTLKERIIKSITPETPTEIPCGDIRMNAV

molecular target: serotonin transporter, wildtype (WT SERT) (mouse (endogenous in midbrain synaptosomes)) (UniProt Q60857); assay: affinity purification with mass spectrometry; SERT immunoprecipitated with C-terminal anti-SERT serum #48 cross-linked to protein A Dynabeads from midbrain synaptosomes (lysed in PBS + 0.7% DDM, 4°C) of WT, SERT Ala56 and SERT KO (negative control) mice; in-gel tryptic digestion, 8-step MudPIT LC-MS/MS; label-free quantification

Binder | binding
Agk (protein, UniProt Q9ESW4 1-421) MTAFFKTLRNHWKKTTAGLCLLTWGGHWLYGKHCDNLLRRAACQEAQVFGNQLIPPNAQVKKATVFLNPAACKGKARTLFEKNAAPILHLSGMDVTVVKTDYEGQAKKLLELMESTDVIIVAGGDGTLQEVVTGVLRRTDEATFSKIPIGFIPLGQTSSLSHTLFAESGNKVQHITDATLAIVKGETVPLDVLQIKGEKEQPVYAMTGLRWGSFRDAGVKVSKYWYLGPLKTKAAHFFSTLQEWPQTHQASISYTGPRERPPIEPEETPPRPSLYRRILRRLASFWAQPQDASSREVSPEVWKDVQLSTIELSITTRNTQLDLMSKEDFMNICIEPDTVSKGDFIIIGSKKVRDPGLRAAGTECLQASHCTLVLPEGTEGSFSIDSEEYEAMPVEVKLLPRKLRFFCDPRKREQMLPSTSQ | binds
Cask (protein, UniProt O70589 1-926) MADDDVLFEDVYELCEVIGKGPFSVVRRCINRETGQQFAVKIVDVAKFTSSPGLSTEDLKREASICHMLKHPHIVELLETYSSDGMLYMVFEFMDGADLCFEIVKRADAGFVYSEAVASHYMRQILEALRYCHDNNIIHRDVKPHCVLLASKENSAPVKLGGFGVAIQLGESGLVAGGRVGTPHFMAPEVVKREPYGKPVDVWGCGVILFILLSGCLPFYGTKERLFEGIIKGKYKMNPRQWSHISESAKDLVRRMLMLDPAERITVYEALNHPWLKERDRYAYKIHLPETVEQLRKFNARRKLKGAVLAAVSSHKFNSFYGDPPEELPDFSEDPTSSGLLAAERAVSQVLDSLEEIHALTDCSEKDLDFLHSVFQDQHLHTLLDLYDKINTKSSPQIRNPPSDAVQRAKEVLEEISCYPENNDAKELKRILTQPHFMALLQTHDVVAHEVYSDEALRVTPPPTSPYLNGDSPESANGDMDMENVTRVRLVQFQKNTDEPMGITLKMNELNHCIVARIMHGGMIHRQGTLHVGDEIREINGISVANQTVEQLQKMLREMRGSITFKIVPSYRTQSSSCERDSPSTSRQSPANGHSSTNNSVSDLPSTTQPKGRQIYVRAQFEYDPAKDDLIPCKEAGIRFRVGDIIQIISKDDHNWWQGKLENSKNGTAGLIPSPELQEWRVACIAMEKTKQEQQASCTWFGKKKKQYKDKYLAKHNAVFDQLDLVTYEEVVKLPAFKRKTLVLLGAHGVGRRHIKNTLITKHPDRFAYPIPHTTRPPKKDEENGKNYYFVSHDQMMQDISNNEYLEYGSHEDAMYGTKLETIRKIHEQGLIAILDVEPQALKVLRTAEFAPFVVFIAAPTITPGLNEDESLQRLQKESDVLQRTYAHYFDLTIINNEIDETIRHLEEAVELVCTAPQWVPVSWVY | binds
Cerk (protein, UniProt Q8K4Q7 1-531) MGAMGAAEPLHSVLWVKRRRCAVSLEPARALLRWWRSPEPGPSAPGADARSVLVSEIIAVEEKDDCEKHASSGRWHKMENPFAFTVHRVKRVRHHRWKWARVTFWSADEQLCHLWLQTLRGLLESLTSRPKHLLVFINPFGGKGQGKRIYEKTVAPLFTLASITTEIIITEHANQAKETLYEINTDSYDGIVCVGGDGMFSEVLHGVIGRTQQSAGIDPNHPRAVLVPSTLRIGIIPAGSTDCVCYSTVGTNDAETSALHIIIGDSLAIDVSSVHYHNTLLRYSVSLLGYGFYGDLIKDSEKKRWMGLVRYDFSGLKTFLSHQYYEGTLSFLPAQHTVGSPRDNKPCRAGCFVCRQSKQQLEEEEKKALYGLENAEEMEEWQVTCGKFLAINATNMSCACPRSPGGLSPFAHLGDGSSDLILIRKCSRFNFLRFLIRHTNQEDQFDFTFVEVYRVKKFHFTSKHVEDEDNDSKEQEKQKFGKICKDRPSCTCSASRSSWNCDGEVMHSPAIEVRVHCQLVRLFARGIEEES | binds
Cdkl5 (protein, UniProt Q3UTQ8 1-938) MKIPNIGNVMNKFEILGVVGEGAYGVVLKCRHKETHEIVAIKKFKDSEENEEVKETTLRELKMLRTLKQENIVELKEAFRRRGKLYLVFEYVEKNMLELLEEMPNGVPPEKVKSYIYQLIKAIHWCHKNDIVHRDIKPENLLISHNDVLKLCDFGFARNLSEGNNANYTEYVATRWYRSPELLLGAPYGKSVDMWSVGCILGELSDGQPLFPGESEIDQLFTIQKVLGPLPSEQMKLFYSNPRFHGLRFPAVNHPQSLERRYLGILNSVLLDLMKNLLKLDPADRYLTEQCLNHPTFQTQRLLDRSPSRSTKRKPYHVESSTLSNRNQSTKGAALQTHHRSNSKDIQNLSVGLPRAEEGLPANESFLNGNLAGATLSPMHTKTYQASTQPGSSSKDLTNNNIPHLLSPKEAKSKTEFDFNIDTKPSEGPGTKYLKSSTRSQQNRHSFMESSQSKAGTLQPSEKQSRHSYIDTIPQSSRSPSYRTKAKSHGALSDSKSVSNLSEARAQITETNTSRYFPSSCLDLNSPTSPTPTRHTDTRTLLSPSGRNNRNEGTLDSRRTTTRHSKTMEELKLPEHMDSSHSHSLSAPHESFSYGLGYTSPFSSQQRPHRHSMYVTRDKVRAKGLDGSLSIGQGMAARANSLQLLSPQPGEQLPPEMTVARPSVKESSREGASSFHTRQKSEGGVYHDPHSDDGTAPKENRHLYNDPVPRRVGSFYRVPSPRPDNSFHENNVSTRVSSLPSDSSSGTNHSKRQPGFDPWKSPENISHADQLKEKEKQGFFRSMKKKKKKTQTVPNTDGPDLLTLQKAIHSSSTASSRPKEWRPEKLSDLQTQSQPLKSLRKLLHLSSSTNHPASSDPRFQPLTAQQAKNSFSEIRIHPLSQATGGSSNIRQEPTPKGRPALQLPGSSLLRYNGWKHSRSRSSQPDEVIFLASHEKWKQ | binds
Fn3k (protein, UniProt Q9ER35 1-309) MEQLLRAQLHTTTLRAFGSSGGGCISEGYAYYTDSGPVFVKVNRRTQARQMFEGEMASLEALRNTGLVRVPKPMKVIDLPGGGAVFVMEHLKMKSLSSQASKLGEQMADLHLYNQKLREKSKTRQNTVGCGAEGAEPQGVTKFGFHTVTCCGFIPQVNEWQEDWPTFFTRHRLQAQLDLIEKDYADRETQELWSRLQVKIPDLFAGIEIVPALLHGDLWSGNVAEDDQGPVIYDPASFYGHSEFELAIASMFGGFPRSFFTAYHRKIPKAPGFDKRLLLYQLFNYLNHWNHFGREYRSPSLGVMRKLLR | binds
Gk (protein, UniProt Q64516 1-559) MAAAKKAVLGPLVGAVDQGTSSTRFLVFNSKTAELLSHHQVEIKQEFPREGWVEQDPKEILQSVYECIEKTCEKLGQLNIDISNIKAIGVSNQRETTVVWDKVTGEPLYNAVVWLDLRTQSTVENLSKRIPGNNNFVKSKTGLPLSTYFSAVKLRWLLDNVKKVQEAVEENRALFGTIDSWLIWSLTGGIHGGVHCTDVTNASRTMLFNIHSLEWDKELCEFFGIPMEILPNVRSSSEIYGLMKISHSLKAGALEGVPISGCLGDQSAALVGQMCFQDGQAKNTYGTGCFLLCNTGHKCVFSEHGLLTTVAYKLGRDKPVYYALEGSVAIAGAVIRWLRDNLGIIKSSEEIEKLAKEVGTSYGCYFVPAFSGLYAPYWEPSARGIICGLTQFTNKCHIAFAALEAVCFQTREILDAMNRDCGIPLSHLQVDGGMTSNKILMQLQADILYIPVVKPSMPETTALGAAMAAGAAEGVGVWSLEPEDLSAVTMERFEPQINAEESEIRYSTWKKAVMKSIGWVTTQSPESGDPSIFCSLPLGFFIVSSMVMLIGARYISGIP | binds
Magi3 (protein, UniProt Q9EQJ9 1-1476) MSKTLKKKKHWLSKVQECAVSWAGPPGDLGAEIRGGAERGEFPYLGRLRDEAGGGGGTCCVVSGKAPSPGDVLLEVNGTPVSGLTNRDTLAVIRHFREPIRLKTVKPGKVINKDLRHYLSLQFQKGSIDHKLQQVIRDNLYLRTIPCTTRAPRDGEVPGVDYNFISVEQFKALEESGALLESGTYDGNFYGTPKPPAEPSPFQPDPVDQVLFDNEFDTESQRKRTTSVSKMERMDSSLPEEEEDEDKEAVNGSGSMETREMHSETSDCWMKTVPSYNQTNSSMDFRNYMMRDENLEPLPKNWEMAYTDTGMIYFIDHNTKTTTWLDPRLCKKAKAPEDCEDGELPYGWEKIEDPQYGTYYVDHLNQKTQFENPVEEAKRKKQLGQAEIHSAKTDVERAHFTRDPSQLKGVLVRASLKKSTMGFGFTIIGGDRPDEFLQVKNVLKDGPAAQDGKIAPGDVIVDINGNCVLGHTHADVVQMFQLVPVNQYVNLTLCRGYPLPDDSEDPVVDIVAATPVINGQSLTKGETCMNTQDFKLGAMVLDQNGKSGQILASDRLNGPSESSEQRASLASSGSSQPELVTIPLIKGPKGFGFAIADSPTGQKVKMILDSQWCQGLQKGDIIKEIYHQNVQNLTHLQVVEVLKQFPVGADVPLLILRGGPCSPTKTAKTKTDTKENSGSLETINEPIPQPMPFPPSIIRSGSPKLDPSEVYLKSKTLYEDKPPNTKDLDVFLRKQESGFGFRVLGGDGPDQSIYIGAIIPLGAAEKDGRLRAADELMCIDGIPVKGKSHKQVLDLMTTAARNGHVLLTVRRKIFYGEKQPEDESHQAFSQNGSPRLNRAELPTRSAPQEAYDVTLQRKENEGFGFVILTSKSKPPPGVIPHKIGRVIDGSPADRCGGLKVGDHISAVNGQSIVDLSHDNIVQLIKDAGVTVTLTVVAEEEHHGPPSGTNSARQSPALQHRPMGQAQANHIPGDRIALEGEIGRDVCSSYRHSWSDHKHLAQPDTAVISVVGSRHNQSLGCYPVELERGPRGFGFSLRGGKEYNMGLFILRLAEDGPAIKDGRIHVGDQIVEINGEPTQGITHTRAIELIQAGGNKVLLLLRPGTGLIPDHGDWDTNSPSSSNVIYDEQPPPLPSSHSASTFEESHVPATEDSLTRVQICEKAEELKDTVQEKKSTLNGSQPEMKYQSVHKTMSKKDPPRGSGHGEKSRLKGENGVTRRGRSASPKKSVNRHSEEHLEKIPRPLKSDPKEKSRDRSLSPRKGESKGRLTIKAGSGQDPYRKDRGRSSSPKKQQKIGGNSLSNTEGKLSEAGSRRAAGHPRDSTEQLPDGREKSGVSRKDLKQSQPGKTRTKSPEKKSSKVDETSLPSKKTSSTAGRVVSEKEKGKKPTAGETSRETVEHTQISAKQLKQEAQEKTALGNADDHKGRESEVTDRCRERAGCTPQSSSLVKKAPITPGPWRVPRANKVTGTTGMADKQL | binds
Mapk8ip2 (protein, UniProt Q9ERE9 1-830) MADRAEMFSLSTFHSLSPPGCRPPQDISLEEFDDEDLSEITDDCGLGLSYDSDHCEKDSLSLGRSEQPHPICSFQDDFQEFEMIDDNEEEDDEEEEEEEEEEEDGDRQGKAGGGPGSQALAGDSLIPSPSLEESHKLRPTTLHLTTLGAQDSLNNNNGGFTSAPPSSWQETVLRSPAQEPLKELPAPLLPAEEERHEVQSLARPGCDCEGNQPPEPPASSGGASPSSDPGIEADLRSHSSGGHEGRRSSQELSSPGSDSEDAGGARLGRMISSISETELELSSDGGSSSGRSSHLTNSIEEASSPASEPEPEPEPLHEPPRRPAFLPVGQDDTNSEYESGSESEPDLSEDADSPWLLSNLVSRMISEGSSPIRCPGQCLSPAPRLPEEAASQANSVPQDCQDPEAGPHVELVDMDTLCGPPPPAPAAPRLGPAQPGPCLFLSNPTRDTITPLWATPGRTARPGRSCSAACSEEEEEDEEEDEEDEEDAEDSVVPPGSRTTGSTAPLDASLVYDAVKYTLVVDEHTQLELVSLRRCAGLGNDSEEDSSCEASEEEAGATLLGSDQVPEDASPDSPDLTFSKKFLNVFVNSTSRSSSTESFGLFSCVVNGEEREQTHRAVFRFIPRHPDELELDVDDPVLVEAEEDDFWFRGFNMRTGERGVFPAFYAHAVPGPAKDLLGSKRSPCWVDRFDVQFLGSVEVPCHQGNGILCAAMQKIATARKLTVHLRPPASCDLEISLRGVKLSLSGGGPEFQRCSHFFQMKNISFCGCHPRNSCYFGFITKHPLLSRFACHVFVSQESMRPVARSVGRAFLEYYQEHLAFACPTEDIYLE | binds
